Values from PubChem BioAssay AID1224830 (NIAID, 2016)

- Assay: 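Genes whose knock-down alters the TNF-alpha reporter response to LPS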 (primary screen)
- Cells: human THP-1 monocytic leukaemia cells, TNF dual-luciferase reporter clone, PMA-differentiated to macrophage-like cells
- Reagents: siRNA pool against human genes, 50 nM
- Timing: LPS for 4 h, given about 3 days after siRNA transfection
- Treatment: bacterial LPS (TLR4 ligand), 10 ng/ml
- Measurement: 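TNF firefly reporter luminescence divided by renilla, normalised to the plate median, then turned into a robust z-score for each replicate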
- Direction: TNF reporter robust z-score: higher = stronger TNF reporter response to LPS
- Hit rule: 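Each well counts as active if its z-score is over 2.8 or under -1.5; controls are left without a call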
Shown is a random part of about 18,000 deposited reagents. Over the whole deposit, about 2,900 (16%) are marked active. 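Calls are made per well; low scores hint the gene aids the LPS response, high scores that it dampens it.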 Repeated entries: four replicate wells of each siRNA pool. Reagent sequences are not shown.

gene	TNF reporter robust z-score	call
ZNF439 (GeneID 90594)	1.8	inactive
ZNF439 (GeneID 90594)	1.21	inactive
ZNF439 (GeneID 90594)	1.53	inactive
ZNF439 (GeneID 90594)	2.08	inactive
WBP4 (GeneID 11193)	0.06	inactive
WBP4 (GeneID 11193)	0.91	inactive
WBP4 (GeneID 11193)	0.52	inactive
WBP4 (GeneID 11193)	0.38	inactive
TNR (GeneID 7143)	-0.11	inactive
TNR (GeneID 7143)	0.78	inactive
TNR (GeneID 7143)	-0.06	inactive
TNR (GeneID 7143)	0.19	inactive
ATF2 (GeneID 1386)	-0.63	inactive
ATF2 (GeneID 1386)	-0.6	inactive
ATF2 (GeneID 1386)	-0.48	inactive
ATF2 (GeneID 1386)	-0.57	inactive
VCP (GeneID 7415)	-1.67	active
VCP (GeneID 7415)	-1.2	inactive
VCP (GeneID 7415)	-1.17	inactive
VCP (GeneID 7415)	-1.28	inactive
YARS2 (GeneID 51067)	0.8	inactive
YARS2 (GeneID 51067)	0.7	inactive
YARS2 (GeneID 51067)	0.31	inactive
YARS2 (GeneID 51067)	0.56	inactive
DPPA5 (GeneID 340168)	-0.35	inactive
DPPA5 (GeneID 340168)	0.31	inactive
DPPA5 (GeneID 340168)	-0.48	inactive
DPPA5 (GeneID 340168)	-0.07	inactive
CLEC11A (GeneID 6320)	0.55	inactive
CLEC11A (GeneID 6320)	-0.64	inactive
CLEC11A (GeneID 6320)	0.08	inactive
CLEC11A (GeneID 6320)	0.34	inactive
CHKA (GeneID 1119)	0.41	inactive
CHKA (GeneID 1119)	-0.41	inactive
CHKA (GeneID 1119)	1.18	inactive
CHKA (GeneID 1119)	-0.43	inactive
SAMD10 (GeneID 140700)	-1.58	active
SAMD10 (GeneID 140700)	-0.39	inactive
SAMD10 (GeneID 140700)	-1.2	inactive
SAMD10 (GeneID 140700)	-0.55	inactive
VOPP1 (GeneID 81552)	0.28	inactive
VOPP1 (GeneID 81552)	-0.81	inactive
VOPP1 (GeneID 81552)	-1.44	inactive
VOPP1 (GeneID 81552)	-0.45	inactive
PHAX (GeneID 51808)	-1.13	inactive
PHAX (GeneID 51808)	-0.43	inactive
PHAX (GeneID 51808)	-0.74	inactive
PHAX (GeneID 51808)	-0.42	inactive
ST8SIA4 (GeneID 7903)	-0.46	inactive
ST8SIA4 (GeneID 7903)	-0.47	inactive
ST8SIA4 (GeneID 7903)	-0.22	inactive
ST8SIA4 (GeneID 7903)	-0.04	inactive
PTPN1 (GeneID 5770)	1.39	inactive
PTPN1 (GeneID 5770)	0.44	inactive
PTPN1 (GeneID 5770)	0.33	inactive
PTPN1 (GeneID 5770)	0.99	inactive
DNASE1L1 (GeneID 1774)	2.41	inactive
DNASE1L1 (GeneID 1774)	0.61	inactive
DNASE1L1 (GeneID 1774)	2.36	inactive
DNASE1L1 (GeneID 1774)	2.23	inactive
VMP1 (GeneID 81671)	-0.24	inactive
VMP1 (GeneID 81671)	0	inactive
VMP1 (GeneID 81671)	-0.71	inactive
VMP1 (GeneID 81671)	-0.09	inactive
CTPS2 (GeneID 56474)	0.44	inactive
CTPS2 (GeneID 56474)	0.6	inactive
CTPS2 (GeneID 56474)	-0.71	inactive
CTPS2 (GeneID 56474)	0.13	inactive
PATJ (GeneID 10207)	-0.48	inactive
PATJ (GeneID 10207)	-0.04	inactive
PATJ (GeneID 10207)	-0.59	inactive
TLR10 (GeneID 81793)	0.18	inactive
TLR10 (GeneID 81793)	0.86	inactive
TLR10 (GeneID 81793)	0.53	inactive
TLR10 (GeneID 81793)	0.11	inactive
MYG1 (GeneID 60314)	-0.41	inactive
MYG1 (GeneID 60314)	-0.06	inactive
MYG1 (GeneID 60314)	-0.62	inactive
MYG1 (GeneID 60314)	-1	inactive
ICMT (GeneID 23463)	-0.61	inactive
ICMT (GeneID 23463)	1.02	inactive
ICMT (GeneID 23463)	0.29	inactive
ICMT (GeneID 23463)	0.47	inactive
MRPL12 (GeneID 6182)	-1	inactive
MRPL12 (GeneID 6182)	1.76	inactive
MRPL12 (GeneID 6182)	2.09	inactive
MRPL12 (GeneID 6182)	1.37	inactive
CEMIP (GeneID 57214)	1.35	inactive
CEMIP (GeneID 57214)	-0.1	inactive
CEMIP (GeneID 57214)	0.09	inactive
CEMIP (GeneID 57214)	0.64	inactive
SLC9A8 (GeneID 23315)	-0.17	inactive
SLC9A8 (GeneID 23315)	-0.35	inactive
SLC9A8 (GeneID 23315)	-0.04	inactive
SLC9A8 (GeneID 23315)	0.07	inactive
NGEF (GeneID 25791)	1.45	inactive
NGEF (GeneID 25791)	0.62	inactive
NGEF (GeneID 25791)	0.22	inactive
NGEF (GeneID 25791)	-0.23	inactive
COL23A1 (GeneID 91522)	-1.28	inactive
COL23A1 (GeneID 91522)	-1.33	inactive
COL23A1 (GeneID 91522)	-1.86	active
COL23A1 (GeneID 91522)	-0.79	inactive
GCNT1 (GeneID 2650)	0.32	inactive
GCNT1 (GeneID 2650)	1.54	inactive
GCNT1 (GeneID 2650)	1.43	inactive
GCNT1 (GeneID 2650)	1.06	inactive
S1PR2 (GeneID 9294)	-0.99	inactive
S1PR2 (GeneID 9294)	-1.34	inactive
S1PR2 (GeneID 9294)	-0.74	inactive
S1PR2 (GeneID 9294)	-0.92	inactive
